Earlier results, collected in patent publication US10485768B2, “Treatment for glioblastoma” (SignPath Pharma Inc., priority 2015, dated 2019).
At least one compound was matched to its structure with a doubt left.

Test system: glioblastoma
Details: radiation therapy plus TMZ, patients; 12.1 months with radiation therapy alone

In the case of `Cn1nnc2c(C(N)=O)ncn2c1=O` [TMZ, Temozolomide], the Median survival is listed as 14.6 months.
